System: Midbrain-Chip DA-neurons

## CN1CC[C@]23c4c5ccc(O)c4O[C@H]2[C@@H](O)C=C[C@H]3[C@H]1C5 [morphine]
  response to morphine (dopamine from chip effluent): respond to morphine treatment

From US11981918B2, “Differentiation technique to generate dopaminergic neurons from induced pluripotent stem cells” (CEDARS-SINAI MEDICAL CENTER, priority 2018, dated 2024)
